# The supplement of paper PMC10735217
# Structures can show the parent of a compound that is named as a salt. Some of the results follow. Single values are uncertain here, since repeats match poorly.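 The human kidney-derived cells carry a stably integrated construct of eight TEAD-binding elements driving luciferase, read by luminescence in a drug-repurposing library screen. A compound counts as a hit when its signal is more than five robust Z scores above the plate mean.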
# Tested on: HEK293A TEAD-LUC reporter
# Test: TEAD-luciferase reporter activity (YAP activation), robust Z score vs plate; higher = stronger YAP/TEAD activation
# Conditions: 24 h
Structure (SMILES),TEAD-luciferase reporter activity (compound concentration: 200 nM),TEAD-luciferase reporter activity (compound concentration: 2 uM),TEAD-luciferase reporter activity (compound concentration: 10 uM)
O=C(O)C=C1NN(Cc2nc3cc(C(F)(F)F)ccc3s2)C(=O)c2ccccc21 [Zopolrestat],inactive: 1.5,inactive: -0.273,inactive: 2.8
Cn1ncc(C(=O)NCC(C)(C)O)c1C(=O)Nc1ccn2cc(-c3ccccc3)nc2n1,inactive: -1.97,inactive: -1.18,inactive: 0.574
CS(=O)(=O)n1cc2c(n1)CN([C@H]1CO[C@H](c3cc(F)ccc3F)[C@@H](N)C1)C2 [omarigliptin],inactive: -2.16,inactive: -0.711,inactive: 2.09
CCC1(c2c[nH]cn2)Cc2ccccc2C1 [Atipamezole],inactive: -0.515,inactive: -0.879,inactive: 2.01
COc1c(C(O)CCc2ccc(O)cc2)c(OCCN2CCCCC2)c(OC)c2occc12 (stereo not drawn),inactive: -0.518,inactive: -0.737,inactive: -0.611
CC(=O)N[C@@H]([C@@H](O)[C@H](O)[C@H](O)CO)[C@@H](O)CC(=O)C(=O)O [sodium aceneuramate],inactive: 0.0947,inactive: 1.16,inactive: 2.66
CC12CC3CC(C)(C1)CC(N)(C3)C2,inactive: 0.419,–,inactive: -0.116
CC12CC3CC(C)(C1)CC(N)(C3)C2 [Memantine hydrochloride],–,inactive: -1.08,–
CC12CC[C@@H]3c4ccc(O[C@@H]5O[C@H](CO)[C@@H](O)[C@H](O)[C@H]5O)cc4CC[C@H]3[C@@H]1CC[C@@H]2O (stereo partly drawn) [Estradiol glucoside],inactive: -2.36,inactive: -1.06,inactive: -1.22
C#CCC(N)C(=O)O (stereo not drawn),inactive: -0.218,inactive: -1.35,inactive: -0.615
CC(=O)[C@@]1(O)[C@H](C)CC2C3CC=C4CC(OP(=O)(O)O)CC[C@]4(C)C3CC[C@@]21C (stereo partly drawn),inactive: -0.456,inactive: -0.537,inactive: 0.192
Nc1nc2ccc(OC(F)(F)F)cc2s1 [Riluzole],inactive: -0.697,–,inactive: 0.177
Nc1nc2ccc(OC(F)(F)F)cc2s1 [riluzole],–,inactive: 1.99,–
COc1ncc(-c2nc3c(n2C(C)C)[C@@H](c2ccc(Cl)cc2)N(c2cc(Cl)cn(C)c2=O)C3=O)c(OC)n1,inactive: -1.34,inactive: -0.934,active: 5.55
N=C(NCC(F)(F)F)Nc1ccn(CCCCC(N)=O)n1,inactive: 2.1,inactive: -1,inactive: 2.09
CC1CCC2c3c(c4ccccc4n3Cc3ccccc3)CCN2C1 (stereo not drawn),inactive: 0.606,inactive: 4.14,active: 18.4
COc1ccccc1N1CCN(CCC(O)c2csc3ccccc23)CC1 (stereo not drawn),inactive: -0.122,inactive: -0.639,inactive: -0.183
CC(=O)c1cc2cccc(OCC(O)CNC(C)C)c2o1 (stereo not drawn),inactive: -1.23,inactive: -1.09,inactive: 0.759
C#Cc1cnc(O)nc1O [eniluracil],inactive: -0.753,inactive: -0.564,inactive: 1.53

Structure (SMILES),TEAD-luciferase reporter activity (compound concentration: 200 nM),TEAD-luciferase reporter activity (compound concentration: 2 uM),TEAD-luciferase reporter activity (compound concentration: 10 uM)
Cc1noc(NS(=O)(=O)c2cccc3c(N(C)C)cccc23)c1C,inactive: -0.721,inactive: -1.25,inactive: 0.123
O=C1CC(=O)[O-]->[Pt+2]2(<-[O-]1)[NH]CC[NH]2,inactive: -0.905,inactive: -1.02,inactive: 1.55
NC(=O)c1nnc(N[C@H]2CCCNC2)c2cc(-c3cccc(F)c3)sc12 [analog of Puquitinib],–,inactive: 4.13,–
COc1ccc(Cl)cc1NC(=O)Cc1ccc(S(=O)(=O)Nc2ncc(CC(C)C)cn2)cc1,inactive: -1.97,inactive: 0.64,inactive: -1.5
COc1ccc(C(=O)/C(Cc2ccccc2)=C(\C(=O)[O-])c2ccc3c(c2)OCO3)cc1,inactive: -1.22,inactive: 1.02,inactive: -0.0429
Cc1nc(Cc2ccccc2)c2c(c1OCCCCNC(C)C)COC2 [Barucainide],inactive: -0.494,inactive: -1.73,inactive: -0.773
CSc1ccc2ncn(/C=C/C(=O)O)c(=O)c2c1 [tiacrilast],inactive: 0.268,inactive: -1.08,inactive: 0.109
COc1ccc(CCN(C)CCCC2(c3ccc(OC)c(OC)c3)S(=O)(=O)CCCS2(=O)=O)cc1OC,inactive: -1.11,inactive: -2,inactive: 2.07
Cc1oc(-c2ccccc2)nc1CCOc1ccc(CC2SC(=O)NC2=O)cc1 (stereo not drawn),inactive: 0.457,inactive: -1.76,inactive: -0.219
CS(=O)(=O)Nc1ccc(C(=O)O[C@@H](Cc2c(Cl)c[n+]([O-])cc2Cl)c2ccc(OC(F)F)c(OCC3CC3)c2)cc1OCC1CC1,inactive: -0.604,inactive: -1.78,inactive: -0.468
Cc1ccc(CCN2CCCC23Cc2ccccc2CNC3=O)cc1 (stereo not drawn),inactive: -0.772,–,inactive: 1.17
NNc1nncc2ccccc12 [Hydralazine hydrochloride],inactive: -0.43,–,inactive: 1.44
"NNc1nncc2ccccc12 [hydralazine, Fisons]",–,inactive: -0.267,–
O[C@@H]1C[C@@H](Oc2nc(N3CCNCC3)nc3ccccc23)C[C@@H]1O,inactive: -0.841,inactive: 0.0201,inactive: 1.52
Cn1c(=O)c2c(ncn2CCOS(=O)(=O)O)n(C)c1=O,inactive: -1.79,inactive: 0.255,inactive: -0.31
CN(C)/N=N/c1ccc(C(=O)c2ccc(OCCC(=O)NCC(=O)O)cc2)cc1,inactive: -0.592,inactive: -1.05,–
C[N+](C)(C)C1CCC(CC2CCC([N+](C)(C)C)CC2)CC1 (stereo not drawn) [Mebezonium Iodide],inactive: -0.978,inactive: 0.023,inactive: 1.18
COc1ccc(S(N)(=O)=O)cc1C(=O)NC[C@@H]1CCCN1CC1CC1,inactive: -2.39,inactive: 3.31,inactive: -0.521
CN(C)S(=O)(=O)c1ccc2c(c1)N(CCCN1CCC(CCO)CC1)c1ccccc1S2,inactive: -2.3,inactive: -0.815,inactive: 0.0716

Structure (SMILES),TEAD-luciferase reporter activity (compound concentration: 200 nM),TEAD-luciferase reporter activity (compound concentration: 2 uM),TEAD-luciferase reporter activity (compound concentration: 10 uM)
Cc1c[nH]c(=O)n(CCCN2CCN(c3ccccc3OCC(F)(F)F)CC2)c1=O,inactive: -1.35,inactive: -2.65,inactive: 0.512
c1ccc(C(Nc2nc3ccccc3o2)c2ccccn2)cc1 (stereo not drawn),inactive: -2.64,inactive: 2.38,inactive: -0.544
C/C=C1\[C@H]2C=C(C)C[C@]1(N)c1ccc(O)nc1C2 [huperzine A],–,inactive: -0.0633,–
"C/C=C1\[C@H]2C=C(C)C[C@]1(N)c1ccc(O)nc1C2 [huperzine A, Indevus]",inactive: 0.0583,–,inactive: -0.954
COC(=O)[C@H](c1ccccc1)N1CCC(c2ccc(NC(=O)c3ccccc3-c3ccc(C(F)(F)F)cc3)cc2)CC1 [usistapide],inactive: -0.957,inactive: -0.958,inactive: 4.57
COc1ccc(CCO[C@@H]2CCCC[C@H]2N2CC[C@@H](O)C2)cc1OC [vernakalant hydrochloride],inactive: 0.432,inactive: -0.201,inactive: -1.03
CC(=O)Nc1ccc(C(=O)OCCOc2ccccc2C)cc1,inactive: 3.04,inactive: -0.88,inactive: -0.081
O=C(c1ccc2c(c1)OCO2)N1CCC(N2Cc3ccccc3C2=O)CC1,inactive: 1.44,–,inactive: -0.728
CC(C(=O)O)c1ccc(Oc2nccs2)cc1 (stereo not drawn),inactive: -0.672,inactive: 1.49,inactive: -1.02
CCOC(=O)CCNC(=O)N[C@H]1CCN(c2ccc(C(=N)N)cc2)C1=O [Orbofiban acetate],inactive: -2.25,inactive: 1.6,inactive: 0.585
Cc1cc(NC(=O)CC(=O)[O-])cc(C)c1Oc1ccc(O)c(C(O)c2ccc(F)cc2)c1 (stereo not drawn),inactive: -2.04,inactive: -0.615,inactive: -1.46
CC(C)NC(=O)C[C@@H]1CCCN(C(=O)c2ccc(N3CCCC3)cc2Cl)c2ccccc21,inactive: 0.546,inactive: 1.35,inactive: 0.148
COc1ccc(-c2n/c(=N/c3ccccc3)sn2-c2ccccc2)cc1,inactive: -1.63,inactive: 1.7,inactive: 1.3
CCCCS(N)(=O)=CCC(N)C(=O)O (stereo not drawn) [Buthionine sulphoximine],inactive: -1.13,–,inactive: 0.211
O=Cc1ccc(CO)o1,inactive: -0.154,inactive: 0.794,inactive: -0.047
"COc1cccc(CCc2ccccc2OCC(CN(C)C)OC(=O)CCC(=O)O)c1 (stereo not drawn) [sarpogrelate hydrochloride, KunWha Pharmaceutical]",inactive: -0.93,inactive: -0.0126,inactive: 3.13
COC[C@H](C)Oc1cc(Oc2cnc(C(=O)N3CCC3)cn2)cc(C(=O)Nc2ccc(C)nc2)c1,inactive: -1.06,inactive: -1.6,inactive: 0.658
C#CCOc1ccc(Nc2nc(Nc3ccc(C)c(S(N)(=O)=O)c3)ncc2F)cc1,inactive: -0.195,inactive: -1.69,inactive: 0.791
CCCCCCCCCCCCCCCCCC(=O)OC[C@H](COP(=O)(O)OCC[N+](C)(C)C)OC(=O)CCCCCCCCCCCCCCCCC.COc1cc([C@H]2Oc3cc([C@H]4Oc5cc(O)cc(O)c5C(=O)[C@@H]4O)ccc3O[C@@H]2CO)ccc1O [Silybin phosphatidylcholine complex],inactive: -0.564,inactive: -0.106,inactive: 1.29

# Reformatted: results already given.
Structure (SMILES) | TEAD-luciferase reporter activity (compound concentration: 200 nM) | TEAD-luciferase reporter activity (compound concentration: 2 uM) | TEAD-luciferase reporter activity (compound concentration: 10 uM)
CN(C)/N=N/c1ccc(C(=O)c2ccc(OCCC(=O)NCC(=O)O)cc2)cc1 | inactive: -0.592 | inactive: -1.05 | –
COc1ccc(S(N)(=O)=O)cc1C(=O)NC[C@@H]1CCCN1CC1CC1 | inactive: -2.39 | inactive: 3.31 | inactive: -0.521
CC(C)NC(=O)C[C@@H]1CCCN(C(=O)c2ccc(N3CCCC3)cc2Cl)c2ccccc21 | inactive: 0.546 | inactive: 1.35 | inactive: 0.148
